The assay has as its target T1, Bombyx mori Sericin1 (B. mori (endogenous in the middle silk gland)) (UniProt P07856).
T1 sequence: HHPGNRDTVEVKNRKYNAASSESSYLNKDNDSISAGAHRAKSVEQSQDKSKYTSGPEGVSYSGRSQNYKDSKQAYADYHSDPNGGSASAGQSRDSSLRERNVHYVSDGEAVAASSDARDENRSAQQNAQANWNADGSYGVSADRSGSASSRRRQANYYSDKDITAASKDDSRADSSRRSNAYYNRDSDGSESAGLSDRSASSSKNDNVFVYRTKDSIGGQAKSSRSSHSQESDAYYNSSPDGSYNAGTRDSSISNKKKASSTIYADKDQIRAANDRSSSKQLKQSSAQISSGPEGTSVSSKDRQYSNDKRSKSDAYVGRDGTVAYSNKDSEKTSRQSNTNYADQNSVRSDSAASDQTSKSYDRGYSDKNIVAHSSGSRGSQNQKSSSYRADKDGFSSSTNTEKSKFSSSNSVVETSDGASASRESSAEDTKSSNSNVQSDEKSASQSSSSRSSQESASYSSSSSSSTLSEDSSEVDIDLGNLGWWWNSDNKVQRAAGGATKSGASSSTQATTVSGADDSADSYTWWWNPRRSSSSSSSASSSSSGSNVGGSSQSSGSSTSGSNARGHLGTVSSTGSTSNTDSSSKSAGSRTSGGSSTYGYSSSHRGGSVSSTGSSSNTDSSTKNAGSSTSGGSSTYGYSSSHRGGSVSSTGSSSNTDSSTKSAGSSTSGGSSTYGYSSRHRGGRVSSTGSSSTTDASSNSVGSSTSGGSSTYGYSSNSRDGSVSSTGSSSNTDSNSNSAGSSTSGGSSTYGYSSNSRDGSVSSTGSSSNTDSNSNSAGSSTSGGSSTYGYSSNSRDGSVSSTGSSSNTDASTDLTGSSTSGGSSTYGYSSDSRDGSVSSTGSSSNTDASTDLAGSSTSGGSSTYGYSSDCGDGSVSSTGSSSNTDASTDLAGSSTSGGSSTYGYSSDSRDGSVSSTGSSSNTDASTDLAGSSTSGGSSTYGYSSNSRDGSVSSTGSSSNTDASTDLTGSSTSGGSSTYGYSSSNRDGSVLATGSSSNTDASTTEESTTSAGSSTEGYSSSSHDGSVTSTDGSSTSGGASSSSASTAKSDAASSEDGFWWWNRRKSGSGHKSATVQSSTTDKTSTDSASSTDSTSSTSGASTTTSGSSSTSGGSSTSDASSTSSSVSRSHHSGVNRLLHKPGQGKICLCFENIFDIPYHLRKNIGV
The assay can be described thus: co-IP; 100 ug of proteins extracted from the MSG incubated with anti-Ser1 or anti-BmOsi9a antibody for 1 h at 4 °C; Capturem Protein A columns; rabbit IgG as negative control; eluates blotted with the anti-BmOsi9a antibody.

No constants are given. Whether binding was seen depends on the method and setting. Binding seen in cells or lysates may run through a third protein. Binding calls can cover weak binding; strength is not graded here.

For Bombyx mori Osiris9a (B. mori), the binding entry is “binds”.

The record behind these values is PMC7084798.
